Binding signal data for 54 sequences are collected here from paper PMC7819943, “Rice protein-binding microarrays: a tool to detect cis-acting elements near promoter regions in rice”.

Chains of the proteins cited; added tags and fusions are not shown.
UniProt Q0JBA9, entry or part of it: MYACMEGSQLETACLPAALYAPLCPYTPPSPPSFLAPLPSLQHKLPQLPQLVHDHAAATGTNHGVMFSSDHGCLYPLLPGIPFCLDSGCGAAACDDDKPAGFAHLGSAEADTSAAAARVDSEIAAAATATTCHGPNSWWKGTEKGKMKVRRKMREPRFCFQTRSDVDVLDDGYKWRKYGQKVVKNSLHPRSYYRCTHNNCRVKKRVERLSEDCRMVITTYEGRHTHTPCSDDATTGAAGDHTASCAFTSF

The list shows a part of the results.

In this experiment the target is OsWRKY34 (Oryza sativa, UniProt Q0JBA9 1-250). Description: protein-binding microarray (RPBM); PBS, 2% BSA, 51.3 ng/ul salmon testes DNA, 50 uM zinc acetate, 200 nM TF, 25 C, 1 h; high values mean tight binding. As to conditions: protein: recombinant; tags: N-terminal polyhistidine and DsRed monomer fusion (pET32a); label: CyDye5-dUTP incorporated in the synthesized complementary strand; 3' TTTTT single-stranded linker to array surface; dsDNA, one strand shown. The procedure, abridged:
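Per-feature fluorescence intensity (arbitrary units), read on an Axon 4000B scanner, is the binding signal. Transcription factors carrying an N-terminal polyhistidine tag and DsRed fusion were expressed in E. coli BL21-CodonPlus and purified on Ni–NTA. A custom Agilent array, made double-stranded by primer extension with Cy5-dUTP and blocked with 2% BSA, was incubated with 200 nM protein in PBS, 2% BSA, salmon testes DNA and 50 µM zinc acetate at 25 °C for 1 h and then washed.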
With “TGGTGTTACTTTGAATTTGAGGATTTGGGGTTTGATTTAGCGGAGTCACCTAGTGCAG”, the binding signal is 9690 fluorescence intensity (a.u.).
Turning to “ATTTTCTGCTGTTGCTAGCCTTTTCTACACATTGCACCATCGGAGTCACCTAGTGCAG”, the binding signal was 8920 fluorescence intensity (a.u.).
With “CCGACCCACCTCCGCCTCCGAGCCACCGTCCTCACGCACGCGGAGTCACCTAGTGCAG”, the binding signal was 12000 fluorescence intensity (a.u.).
For the sequence “CTTTTGGTCTTCCCTTTCTTTTCTTCTTCTTCTTCTTCTTCGGAGTCACCTAGTGCAG”, the binding signal was 10400 fluorescence intensity (a.u.).
“CATCACTGGGTTCTTGATTTGTTTCGAGATCTTTTGTTTGCGGAGTCACCTAGTGCAG”: the binding signal was 8100 fluorescence intensity (a.u.).
The figure for “TTTTCGCATCACTGTCCTCTCTCATCTAAACCCTAGCCACCGGAGTCACCTAGTGCAG” is 8120 fluorescence intensity (a.u.).
For the sequence “TTTTTCTGTGTCGCAATCTCTTCTTCCTCCTGTGTATTATCGGAGTCACCTAGTGCAG”, the binding signal was 9400 fluorescence intensity (a.u.).
With “GACCATTCCTATGTTTTTTCATGTGTTTTGCAATCCTTTGCGGAGTCACCTAGTGCAG”, the binding signal is 9870 fluorescence intensity (a.u.).
As to “TTGTATTCATTTGGCTGCCATGAGGGACCTTTTGCCATTTCGGAGTCACCTAGTGCAG”, the binding signal is 9420 fluorescence intensity (a.u.).
On to “TGTCACTCACGTGAGTTGACCGTGTGTTGACTGTTGCTAGCGGAGTCACCTAGTGCAG”, for which the binding signal is 10800 fluorescence intensity (a.u.).
With “GGACCTTATGCTGTGTGTTATGAAAATTTCTTCAGTGACTCGGAGTCACCTAGTGCAG”, the binding signal was 9490 fluorescence intensity (a.u.).
With “GCTCGTTCCTCCAACGATCTTGCCTGGCCACATTCGCCATCGGAGTCACCTAGTGCAG”, the binding signal was 8290 fluorescence intensity (a.u.).
For the sequence “TCATATTCCGTTTCAGCTTCTTCTTCAAGCTTGGCACATTCGGAGTCACCTAGTGCAG”, the binding signal is 8450 fluorescence intensity (a.u.).
As to “CCACACACGCCTCTCCCCACCAACGGCAACCCATCGCGTCCGGAGTCACCTAGTGCAG”, the binding signal was 8100 fluorescence intensity (a.u.).
The figure for “TCATGTGTCTTACTTGGTCCCACCATTTTCCACATACTCTCGGAGTCACCTAGTGCAG” is 8570 fluorescence intensity (a.u.); for “TGGATCTCATCTCGCTATCTATCTTAGCTTTGCTTGCAACCGGAGTCACCTAGTGCAG” it is 11500 fluorescence intensity (a.u.).
As for “CCACTCAATCCCAGATCCGAATCCCACCTCTCCGTCTCATCGGAGTCACCTAGTGCAG”, the binding signal was 9510 fluorescence intensity (a.u.).
As to “GTGGTATATTTCTTCTTTGATGGGACCTGGCTTATTTCTCCGGAGTCACCTAGTGCAG”, the binding signal is 9020 fluorescence intensity (a.u.).
Turning to “TCTCTCTCTCTCTCTCTCTCTCTCTCTCTCTCTCTCTTCTCGGAGTCACCTAGTGCAG”, the binding signal was 10600 fluorescence intensity (a.u.).
As to “TCTTGTATTCTCCACTAGTCTTGGGTCATCCATTCTTCAGCGGAGTCACCTAGTGCAG”, the binding signal was 8550 fluorescence intensity (a.u.).
In the case of “TTTATATCATCTGGATGGGAGGGTTCTGCAACTGATGCTACGGAGTCACCTAGTGCAG”, the binding signal is 8810 fluorescence intensity (a.u.).
Take “GTTTCACCTGCCACGCCAGCCGAACTCCCTCTCACGCTTTCGGAGTCACCTAGTGCAG”: the binding signal is 10300 fluorescence intensity (a.u.).
For the sequence “CCGCCTCGAGCGCACCCTCTCTCCTGCTCGTTGTGCCGTTCGGAGTCACCTAGTGCAG”, the binding signal was 8030 fluorescence intensity (a.u.).
As for “GTAGTTGTGTGTATGGGTGTTTCCTTCTCTTCTTTCTCTTCGGAGTCACCTAGTGCAG”, the binding signal was 9910 fluorescence intensity (a.u.).
Consider “ATTTTATTGTTGCGGTTGCCAATCAACAACGACGTCATTTCGGAGTCACCTAGTGCAG”, for which the binding signal is 9550 fluorescence intensity (a.u.).
The figure for “TCCCCGTCTATCCATGCTCCCGCTCCACTTGCGCCCCACACGGAGTCACCTAGTGCAG” is 9840 fluorescence intensity (a.u.).
For “CCGCCGCCGCCGCCACTCCTCGATTTTTCTCCCGCAACTCCGGAGTCACCTAGTGCAG”, the binding signal was 8610 fluorescence intensity (a.u.).
For the sequence “AAACTATCCCACAATTTCTTTGTTTTTGGTTGTTCTGTTTCGGAGTCACCTAGTGCAG”, the binding signal is 10400 fluorescence intensity (a.u.).
The figure for “TCCTTTCTCTCTCTATTAAACCCACACACACACACACACCCGGAGTCACCTAGTGCAG” is 8700 fluorescence intensity (a.u.); for “ACGCCGCCGCCGCCGCCCTTGGACCCCGCCGTCATCTCCTCGGAGTCACCTAGTGCAG” it is 9150 fluorescence intensity (a.u.).
The figure for “AATTCTTCTGCGGCACATGGCTTCGTCGCGGCCTCACTCACGGAGTCACCTAGTGCAG” is 8980 fluorescence intensity (a.u.).
For “AACTGTTTCACCTGTGGCCTACCTTTATTAAGCATACTTTCGGAGTCACCTAGTGCAG”, the binding signal was 8280 fluorescence intensity (a.u.).
As to “AAAACTGGCTCTCTTTCACAAGACATTCTCCATTTTCTTTCGGAGTCACCTAGTGCAG”, the binding signal was 8450 fluorescence intensity (a.u.).
For “GTATGTGCCACGTCATCCAAAACCGGCCACAATACTGTCGCGGAGTCACCTAGTGCAG”, the binding signal is 8130 fluorescence intensity (a.u.).
For “TGCTGGATTGTATTGATGTGTGTGCTTACCTAGTATAAATCGGAGTCACCTAGTGCAG” the value was 9300 fluorescence intensity (a.u.); for “GGGGAGGGCAGTGGGCCCGTGGCATCGTGCTTTGGGAGCGCGGAGTCACCTAGTGCAG”, 9000 fluorescence intensity (a.u.); for “TAATGATAAACTATTTCTACCGGTTCATTCATATTTTATTCGGAGTCACCTAGTGCAG”, 8780 fluorescence intensity (a.u.).
In the case of “TTCTCTTCATAACGAAGGTAGCGAGATCGTTTCCATTTGTCGGAGTCACCTAGTGCAG”, the binding signal was 8440 fluorescence intensity (a.u.).
Turning to “ACCACCACCACCGAGTTACCCAACCGTTTCACCTATATAACGGAGTCACCTAGTGCAG”, the binding signal was 9420 fluorescence intensity (a.u.).
For “TCAAAAAGCATCTCCCGACGTCGATTCCCAGCATCTCCTTCGGAGTCACCTAGTGCAG” the value was 8380 fluorescence intensity (a.u.); for “AGCAGCTGTCCTAGTGTTCTCATTTGTCCATTTAGCATAACGGAGTCACCTAGTGCAG”, 9340 fluorescence intensity (a.u.); for “CTGGACAGTGCTTGCCATCTCATGTTAACCTACTTGCTTCCGGAGTCACCTAGTGCAG”, 10300 fluorescence intensity (a.u.).
On to “AGCTGGGCCGTATCCTGTATTCATGTGGGCTTTCTTGCAACGGAGTCACCTAGTGCAG”, for which the binding signal is 9240 fluorescence intensity (a.u.).
For “TCAATCAAAGTTCAGCCTTTTGCCACTGACAATAATTTTCCGGAGTCACCTAGTGCAG” the value was 8910 fluorescence intensity (a.u.); for “GAACTCTTCTTTATTTTCTTTTGCTAATTTCAGATTTATTCGGAGTCACCTAGTGCAG”, 8680 fluorescence intensity (a.u.).
On to “AAAAAAAAACGACGGACGGAGCAACACCACTCCGTCTGCCCGGAGTCACCTAGTGCAG”, for which the binding signal was 8600 fluorescence intensity (a.u.).
On to “GGGGATCAGGAGGGATGGGGATTGGGGAGACGAGTGGATGCGGAGTCACCTAGTGCAG”, for which the binding signal was 8330 fluorescence intensity (a.u.).
“AGAAAATATAGTGCTACTCCGTATCTCGATATCCTTTTTGCGGAGTCACCTAGTGCAG”: the binding signal was 8480 fluorescence intensity (a.u.).
On to “TGCCAAAAACGCCTCAAAACGCGCCGCCGCCTTTGTTTCCCGGAGTCACCTAGTGCAG”, for which the binding signal is 8040 fluorescence intensity (a.u.).
Turning to “AAATTAACACAACTACTGACCTCATTTCCTCATTGATTATCGGAGTCACCTAGTGCAG”, the binding signal is 10400 fluorescence intensity (a.u.).
As for “ACTTTAGTTTTTTTCCGTTGCAGCACACGGTTTTTTTTAACGGAGTCACCTAGTGCAG”, the binding signal is 9170 fluorescence intensity (a.u.).
As for “TGTGGTTGTGCTGATTTGCAGATGAGGGCCTTGCACTGTGCGGAGTCACCTAGTGCAG”, the binding signal was 8660 fluorescence intensity (a.u.).
As for “TCTGTTCTCCGATTGCTTCTGCTCTCATCTTCTTCCTTGCCGGAGTCACCTAGTGCAG”, the binding signal was 10700 fluorescence intensity (a.u.).
With “TGAGAAGTGGTCTTGGTGGTTAGTTGTTTCCGTTGTATTCCGGAGTCACCTAGTGCAG”, the binding signal is 10300 fluorescence intensity (a.u.).
